Experimental data taken from PubChem BioAssay AID624297 (National Center for Advancing Translational Sciences (NCATS), 2012).
Hit rate of the full screen: of about 340,000 compounds, about 6,200 (1.8%) were called active. The inconclusive results got no clear call from the source; some entries with a clear call stand among them for comparison. The call rests on the fitted dose curve; in most records, active means well fitted activation curve with a large enough effect; inconclusive means small, poorly fitted or top-dose-only effect; inactive means no such curve, though single readings can be large or run the other way. Potencies beside an inconclusive call are fits to weak or partial responses and may not hold up.

Test: A quantitative high throughput screen for small molecules that induce DNA re-replication in SW480 colon adenocarcinoma cells. Further: nearly all actives have a fitted effect of over 55% in size. On re-replication activation: % of control where 0% means no effect.
Settings: Hoechst DNA content imaging, 48 h; re-replication activation: at 46.1 µM (top of the series)
Procedure, shortened: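 Image-based read-out: total Hoechst fluorescence of nuclei (405 nm excitation, 500-530 nm emission), with hits raising the fraction of high-intensity nuclei. SW480 colon cells incubated 48 hr with compounds at 37 C.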
Potency means the concentration at half of the fitted maximal effect.

| Compound | re-replication activation | Potency |
| --- | --- | --- |
| COCCn1c(C)cc(/C=C2/NC(=O)N(Cc3ccc(C)cc3)C2=O)c1C | inactive: 3.53% |  |
| O=C(NC(=O)c1ccccc1O)c1ccc(C(F)(F)F)cc1 |  | inconclusive: 18.4 µM [activator, single point] |
| O=S(=O)(NCC(Nc1ccc(Cl)cc1)c1ccccc1)c1ccccc1 (stereo not drawn) |  | inconclusive: 29.1 µM [activator, single point] |
| COc1cc(NC(=O)Nc2ccccc2)c(OC)cc1NC(=O)CN1CCCCC1 |  | inconclusive: 29.1 µM [activator, single point] |
| COC(=O)/C=C/COc1ccccc1[N+](=O)[O-] |  | inconclusive: 29.1 µM [activator, single point] |
| COc1ccccc1C(=O)Nc1nnc(-c2ccc3c(c2)CCCC3)o1 | inactive: -12.8% |  |
| CCOC(=O)c1sc(N2N=C(C)C(N=Nc3cccc(C)c3)C2=O)nc1C (stereo not drawn) |  | inconclusive: 10.3 µM [activator, partial curve] |
| N/C(=N\N=C\c1ccco1)SC1CC(=O)N(c2ccc(C(=O)O)cc2)C1=O (stereo not drawn) |  | inconclusive: 32.6 µM [activator, partial curve, poor fit] |
| CCN(CC)c1ccc(/C=C/C(=O)c2ccc(Br)cc2)cc1 |  | inconclusive: 29.1 µM [activator, single point] |
| COc1ccc(-n2ncc3c2CC(C)(C)CC3NC(=O)c2ccnn2C)cc1 (stereo not drawn) |  | inconclusive: 29.1 µM [activator, single point] |
| COc1cc(C(C(=O)NC2CCCCC2)N(C(=O)c2snc(C(N)=O)c2N)c2ccc(C)cc2)ccc1O (stereo not drawn) |  | inconclusive: 16.4 µM [activator, single point] |
| Cc1ccc(NC(=O)c2ccccc2NS(=O)(=O)c2ccc(Cl)s2)cc1 |  | inconclusive: 29.1 µM [activator, single point] |
| Cc1cc(C)cc(NC(=S)N2CCN(c3ncc(C(F)(F)F)cc3Cl)CC2)c1 |  | inconclusive: 29.1 µM [activator, single point] |
| O=C(OCc1ccc(Br)cc1)c1cnc(Cl)c(Cl)c1 |  | inconclusive: 29.1 µM [activator, single point] |
| COC(=O)c1ccc(CN2CCC(CO)(Cc3ccccc3Cl)CC2)cc1 |  | inconclusive: 9.2 µM [activator, partial curve, poor fit] |
| Cc1cccc(NC(=O)c2nc[nH]c2C(=O)Nc2ccccc2[N+](=O)[O-])c1 | inactive: -1.2% |  |
| Cc1c(Cl)cccc1NC(=O)CSc1nnc(C)n1-c1ccccc1 |  | inconclusive: 29.1 µM [activator, single point] |
| O=c1c2cc(F)ccc2[nH]c(=S)n1CCCN1CCOCC1 | inactive: 2% |  |
| CCN(C(=O)C1CC1)C1CCS(=O)(=O)C1 (stereo not drawn) |  | inconclusive: 0.103 µM [activator, full curve, poor fit] |
| Cc1ccc2nc(SCC(=O)Nc3cccc(F)c3)nc(=O)n2c1 | inactive: -6.03% |  |
| CCOc1ccc(-n2c(-c3ccco3)nc3c(cnn3-c3ccc(C)cc3)c2=O)cc1 |  | inconclusive: 3.26 µM [activator, partial curve, poor fit] |
| COc1ccc(C)cc1NC(=O)CN1C(=O)c2cccc3cccc1c23 |  | inconclusive: 25.9 µM [activator, single point] |

| Compound | re-replication activation | Potency |
| --- | --- | --- |
| CN1C(=O)CC(N2CCN(CCN=CC3=C(O)CC(C)(C)CC3=O)CC2)C1=O (stereo not drawn) |  | inconclusive: 29.1 µM [activator, single point] |
| Cc1ccc(-n2cc(CNCCN3CCOC3=O)c(-c3ccc(F)cc3)n2)cc1 | inactive: -10.7% |  |
| Cn1c(NC(=O)c2cccc(Cn3cc(Cl)cn3)c2)nc2ccccc21 | inactive: -2.43% |  |
| Cc1cccc(NC(=O)CN2C(=O)c3ccccc3S2(=O)=O)n1 |  | inconclusive: 7.31 µM [activator, single point] |
| O=C(Nc1ccc2c(c1)OCO2)N1CCN(c2ncc(C(F)(F)F)cc2Cl)CC1 |  | inconclusive: 31.6 µM [activator, single point] |
| C/C(=C\c1cccc(Cl)c1Cl)C(=O)c1c(C)cc(C)[nH]c1=O |  | inconclusive: 29.1 µM [activator, single point] |
| COc1ccc(C2=CC(c3ccc(F)cc3)n3nnnc3N2)cc1 (stereo not drawn) |  | active: 14.6 µM |
| O=C(Nc1cccnc1)c1cccc(S(=O)(=O)N2CCCCC2)c1 |  | inconclusive: 6.51 µM [activator, partial curve, poor fit] |
| CSc1ccccc1C(=O)N1CCC(CCC(=O)NC2CC2)CC1 |  | inconclusive: 5.8 µM [activator, single point] |
| Nc1nc(N)c2cc(Sc3ccc4ccccc4c3)ccc2n1 |  | inconclusive: 18.4 µM [activator, single point] |
| O=C(Nc1ccccc1)Nc1nnc(SCc2ccc(Cl)cc2)s1 |  | inconclusive: 2.91 µM [activator, partial curve, poor fit] |
| N#C/C(=C/c1cn(-c2ccccc2)nc1-c1cccc(OCc2ccc(F)cc2)c1)C(=O)NCCCn1ccnc1 |  | inconclusive: 18.4 µM [activator, single point] |
| COc1ccc(Cl)cc1NC(=O)CN(C)C(=O)c1cc(=O)c2ccccc2o1 |  | inconclusive: 0.206 µM [activator, partial curve, poor fit] |
| CCC(=O)c1ccc(N2CCN(C(=O)c3ccc(F)cc3)CC2)c(F)c1 |  | inconclusive: 6.31 µM [activator, single point] |
| CCc1cccc(C)c1NC(=S)NCC1CCN(c2ccc(OC)cc2)C1 (stereo not drawn) |  | inconclusive: 20.6 µM [activator, partial curve, poor fit] |
| COc1cccc(C2=CC(c3cccs3)n3nnnc3N2)c1 (stereo not drawn) |  | active: 5.8 µM |
| O=c1c(Cl)c(NCC2CCCO2)cnn1C12CC3CC(CC(C3)C1)C2 (stereo not drawn) | inactive: 13% |  |
| Cc1cc(C)nc(N2N=C(C(F)(F)F)CC2=O)n1 | inactive: -3.65% |  |
| CCc1ccc(S(=O)(=O)NCc2cn3ccsc3n2)s1 |  | inconclusive: 32.6 µM [activator, partial curve, poor fit] |
| O=c1[nH]c2ccccc2cc1-c1nnn(-c2ccccc2)n1 | inactive: -4.83% |  |
| COc1cc(-n2c(C)nc3cccnc32)c(Cl)cc1C(=O)O |  | inconclusive: 18.4 µM [activator, single point] |

Of the compounds above, 2 contain a COOH group:

| Compound | re-replication activation | Potency |
| --- | --- | --- |
| N/C(=N\N=C\c1ccco1)SC1CC(=O)N(c2ccc(C(=O)O)cc2)C1=O (stereo not drawn) |  | inconclusive: 32.6 µM [activator, partial curve, poor fit] |
| COc1cc(-n2c(C)nc3cccnc32)c(Cl)cc1C(=O)O |  | inconclusive: 18.4 µM [activator, single point] |
